Experimental data reported in PubChem BioAssay AID588590 (National Center for Advancing Translational Sciences (NCATS), 2011).
Hit rate of the full screen: of about 390,000 compounds, about 4,000 (1%) were called active. The inconclusive results got no clear call from the source; some entries with a clear call stand among them for comparison. The call rests on the fitted dose curve; in most records, active means well fitted inhibition curve with a large enough effect; inconclusive means small, poorly fitted or top-dose-only effect, or another doubt; inactive means no such curve, though single readings can be large or run the other way. Where the call is inconclusive, the potency comes from a doubtful curve fit.

Chains of the proteins cited; added tags and fusions are not shown. Lines headed by an entry give the natural chain unless they say otherwise; changes in a name come on top.
UniProt Q9UNA4: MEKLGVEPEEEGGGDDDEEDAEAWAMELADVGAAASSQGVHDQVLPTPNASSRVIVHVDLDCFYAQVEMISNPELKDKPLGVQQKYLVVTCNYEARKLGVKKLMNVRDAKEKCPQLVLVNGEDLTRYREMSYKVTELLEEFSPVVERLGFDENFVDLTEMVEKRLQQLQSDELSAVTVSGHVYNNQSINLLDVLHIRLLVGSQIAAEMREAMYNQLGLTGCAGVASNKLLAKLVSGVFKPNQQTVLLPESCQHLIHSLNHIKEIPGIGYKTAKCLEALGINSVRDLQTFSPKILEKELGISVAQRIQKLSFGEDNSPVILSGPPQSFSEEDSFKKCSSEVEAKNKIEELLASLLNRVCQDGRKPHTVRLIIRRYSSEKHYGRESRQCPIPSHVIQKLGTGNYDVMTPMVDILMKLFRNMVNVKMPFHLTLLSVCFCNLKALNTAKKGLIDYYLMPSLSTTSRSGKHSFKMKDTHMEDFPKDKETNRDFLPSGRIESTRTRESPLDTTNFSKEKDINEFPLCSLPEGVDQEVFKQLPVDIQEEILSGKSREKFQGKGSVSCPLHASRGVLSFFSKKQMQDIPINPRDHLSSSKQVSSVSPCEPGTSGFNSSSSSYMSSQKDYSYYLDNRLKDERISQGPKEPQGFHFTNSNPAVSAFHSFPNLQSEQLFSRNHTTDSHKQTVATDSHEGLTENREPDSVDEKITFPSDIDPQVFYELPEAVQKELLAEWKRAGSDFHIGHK

Molecular target: DNA polymerase iota (Homo sapiens) (UniProt Q9UNA4)
Assay: qHTS for Inhibitors of Polymerase Iota
Conditions: Pol iota fluorescent replication assay, 10 min; series mostly up to 115 µM; activity, negative = inhibition: at the top concentration
Outline: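 Pol iota at 10 nM preincubated 15 min with compounds at room temperature; reaction started with fluorescent substrate, 50 nM final. Fluorescence read kinetically at 0 and 10 min; buffer-only wells as negative control.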
Potency means the concentration at half of the fitted maximal effect.

activity, negative = inhibition, inactive:
COc1ccc(N2CCN(CCC(=O)c3ccc4ccccc4c3)CC2)cc1 -5.83%
COc1ccc(CCNC(=O)Cn2c(=O)cc(C(F)(F)F)c3c(C)nn(C)c32)c(OC)c1 -7.16%
Cc1nnc(Nc2ccc(Cl)cc2)s1 162%
CN(C)S(=O)(=O)c1cc(NC(=O)CN2CCN(c3ccccc3O)CC2)ccc1Cl 176%
COc1cc(C(=O)N/N=C/c2cc([N+](=O)[O-])cs2)cc(OC)c1OC -1.54%
CC(=O)Nc1ccc(S(=O)(=O)Nc2cccc(-n3cnnn3)c2)cc1 37.8%
Cc1cc(C)nc(Sc2ccc([N+](=O)[O-])cc2[N+](=O)[O-])n1 4.07%
CCOC(=O)C1=C(CN2CCN(c3ccc(Cl)cc3)CC2)NC(=O)NC1c1ccc(F)cc1 (stereo not drawn) 11.1%
COCc1cc(C)nc2sc(C(=O)Nc3nccs3)c(N)c12 34.7%
O=C1/C(=C\c2ccc(Br)cc2)SC(=S)N1NS(=O)(=O)c1ccccc1 29.7%
O=c1[nH]c(=S)[nH]c2sc3c(c12)CCCCCC3 65.9%
CC(C)(C)c1ccc(OCCNC(=S)Nc2ccccc2)cc1 43.6%

Potency, inconclusive:
N#Cc1nc(-c2cccs2)oc1N1CCN(Cc2ccccc2)CC1 79.4 µM [inhibitor, partial curve, poor fit]
COc1ccc(Cl)cc1/C=C1/C(=O)ON=C1C 79.4 µM [inhibitor, partial curve]
COc1ccc([C@@]2(O)c3c(ccc(CC=C(C)C)c3O)NC(=O)[C@@H]2OC)cc1 44.7 µM [inhibitor, partial curve, poor fit]
COc1ccc(/C=C2\SC(=O)N(CCCC(=O)Nc3cc(Cl)ccc3C(=O)O)C2=O)cc1 89.1 µM [inhibitor, single point]
CCOC(=O)Cn1c(=N)n(Cc2ccccc2F)c2ccccc21 100 µM [inhibitor, single point]
O=C1OC(CN2CCOCC2)CN1N=Cc1ccc([N+](=O)[O-])o1 (stereo not drawn) 20 µM [inhibitor, partial curve, poor fit]
N#CC(C#N)=C1C=CC=CN1/C(=C\c1ccco1)C(=O)c1ccc(Cl)cc1 15.8 µM [inhibitor, full curve, poor fit]
COc1ccc2sc(N3C(=O)CC(Cc4cccc(C)c4)C3=O)nc2c1 (stereo not drawn) 2.51 µM [inhibitor, full curve, poor fit]
O=C1NN(c2ccccc2)C(=O)/C1=C\c1ccccc1 22.4 µM [inhibitor, partial curve, poor fit]
Cc1ccc(-n2ncc3c(NCCc4ccccc4)ncnc32)cc1Cl 89.1 µM [inhibitor, partial curve, poor fit]
C=C1CC(Cn2cc(Br)c(=O)[nH]c2=O)(c2ccc(-c3ccccc3)cc2)OC1=O (stereo not drawn) 20 µM [inhibitor, full curve]
COc1cccc(OCCn2c(-c3ccc(Cl)cc3)nc3ccccc3c2=O)c1 89.1 µM [inhibitor, single point]
Cc1ccc(S(=O)(=O)N2CCN(C(=O)COc3ccc(-c4nnco4)cc3)CC2)cc1 44.7 µM [inhibitor, single point]
Cc1nnc(N(Cc2ccco2)C(=O)c2cccc(C#N)c2)s1 25.1 µM [inhibitor, single point]
C[C@H](NC(=O)c1ccc2ccccc2c1)C(=O)N1CCC2(CC1)NCCc1[nH]cnc12 56.2 µM [inhibitor, single point]
COc1cc(OC)c(NC(=O)Cn2c(=O)nc(-c3ccccc3)c3ccccc32)cc1Cl 89.1 µM [inhibitor, single point]
O=C1/C(=C/c2cccc(F)c2)SC(=S)N1NS(=O)(=O)c1ccccc1 15.8 µM [inhibitor, full curve, poor fit]
CCN(CC)Cc1cc(C(=O)O)c(-c2ccccc2)o1 7.94 µM [inhibitor, full curve, poor fit]
O=C(CSC1CC(=O)N(c2ccc(C(=O)O)cc2)C1=O)Nc1ccc(Cl)cc1 (stereo not drawn) 31.6 µM [inhibitor, single point]
CCCn1c(NC(=O)c2ccc([N+](=O)[O-])o2)nc2ccccc21 28.2 µM [inhibitor, partial curve, poor fit]
COC(=O)[C@@]1(C)[C@H]2C(=O)N(Cc3ccccc3)C(=O)[C@H]2[C@H]2CN=C(SCc3ccccc3)N21 70.8 µM [inhibitor, partial curve]
COc1ccc(OC)c(Nc2nc(-c3sc(NC(=O)C(C)(C)C)nc3C)cs2)c1 17.8 µM [inhibitor, partial curve, poor fit]
O=C(O)CN1C(=O)/C(=C\c2ccccc2OCc2ccc(Cl)cc2Cl)SC1=S 11.2 µM [inhibitor, full curve]
COc1cc(CNCCCSc2nnnn2C)cc(Br)c1OC 89.1 µM [inhibitor, single point]
COc1ccccc1CNc1ccc(N2CCCCC2)cc1 44.7 µM [inhibitor, partial curve]
COc1cccc(Nc2ccc(N3CCCCC3)cc2)c1OC 28.2 µM [inhibitor, partial curve, poor fit]
CCCCOc1ccc(C(=O)N/N=C/c2ccc(OCCN3CCCCC3)c(OC)c2)cc1 20 µM [inhibitor, full curve, poor fit]
O=C(N/N=C/c1cc([N+](=O)[O-])ccc1O)c1cccc(N2CCCC2=O)c1 35.5 µM [inhibitor, partial curve]
O=C(NCCc1csc(-c2cccc(F)c2)n1)c1ccco1 89.1 µM [inhibitor, single point]
N#Cc1ccccc1S(=O)(=O)N1CCN(C(=O)C2CC(=O)N(c3ccc4c(c3)OCCO4)C2)CC1 (stereo not drawn) 89.1 µM [inhibitor, partial curve, poor fit]
O=C(COc1ccc2ccccc2c1)NNC(=O)Cc1ccccc1 112 µM [inhibitor, single point]
CCOC(=O)C1=C(O)/C(=C/c2cc(OC)c(O)c(OC)c2)SC1=Nc1ccc(OC)cc1 63.1 µM [inhibitor, single point]
c1ccc(-n2cnnc2SCc2cn3ccccc3n2)cc1 79.4 µM [inhibitor, single point]
CCOC(=O)c1cnc2c(OC)cccc2c1N1CCN(c2ccccc2F)CC1 79.4 µM [inhibitor, single point]
S=c1[nH]nc(COc2ccccc2)n1/N=C/C(Cl)=C/c1ccccc1 15.8 µM [inhibitor, full curve, poor fit]
CCOC(=O)c1sc(NC(=O)C2=COCCO2)c(C#N)c1C 15.8 µM [inhibitor, partial curve, poor fit]
CCCCN(C)c1nc(-c2ccco2)c2c(c1C#N)CC(C)(C)OC2 8.91 µM [inhibitor, single point]
O=C(CSCc1ccccc1Br)NC1CC1 100 µM [inhibitor, single point]
COc1ccc(C(=O)Nc2ccc3c(c2)CCCN3S(=O)(=O)c2ccc(C)cc2)cc1 50.1 µM [inhibitor, partial curve, poor fit]
COc1cc2cc3c(N)c(C(=O)NCc4ccco4)sc3nc2cc1OC 17.8 µM [inhibitor, partial curve, poor fit]
CCCCCNC1=CC(=O)CC(c2ccccc2)C1 (stereo not drawn) 100 µM [inhibitor, single point]
CCc1ccc(/C=N/n2c(COc3ccccc3)n[nH]c2=S)cc1 3.98 µM [inhibitor, partial curve, poor fit]
O=C(NCCCN1CCN(c2ccc(F)cc2)CC1)c1cccc(N2CCCC2=O)c1 35.5 µM [inhibitor, single point]
CC(C)(C)c1cc(NC(=O)NN2CCOCC2)nn1-c1c(Cl)cc(Cl)cc1Cl 35.5 µM [inhibitor, partial curve, poor fit]
CC(=O)Nc1ccc(NC(=O)CSc2nc(=O)n3cccc(C)c3n2)cc1 28.2 µM [inhibitor, single point]
COc1ccc(CNC(=S)Nc2ccccc2C)cc1 89.1 µM [inhibitor, single point]
Cc1csc2ncc(C(=O)NCc3ccccc3Cl)c(=O)n12 39.8 µM [inhibitor, single point]
CC(C)(C)n1nc(Cc2cccc3ccccc23)c(C#N)c1N 4.47 µM [inhibitor, partial curve, poor fit]
CC(C)(CNC(=O)CO/N=C1/C=C2CCC3C(C(O)C[C@@]4(C)C3CC[C@]4(O)C(=O)CO)[C@@]2(C)CC1)C(O)C(=O)O (stereo partly drawn) 7.94 µM [inhibitor, full curve, poor fit]

Potency, active:
Nc1scc2c(C(=O)N/N=C/c3ccc(Cl)cc3)nn(-c3ccccc3)c(=O)c12 6.31 µM
CCOc1ccc(C(=O)N/N=C/c2cc([N+](=O)[O-])cs2)cc1 35.5 µM
